Values quoted from earlier work in patent US6532437B1, “Crystalline frap complex” (Cornell Research Foundation, Inc., priority 1996, dated 2003).
For at least one compound, name, drawing or mass did not settle the structure.

Legend:
[1] = test system: B16 melanocarcinoma, colon 26 tumor, EM ependymoblastoma, CD8F1 mammary and colon 38 murine tumors; details: CD8F1 mammary and colon 38 murine tumors (Sehgal, 1993)
[2] = test system: autoimmune adjuvant arthritis, experimental allergic encephalomyelitis and autoimmune uveoretinitis; details: prevention of development of autoimmune adjuvant arthritis, experimental allergic encephalomyelitis and autoimmune uveoretinitis in the rat (Sehgal, 1993)
[3] = test system: Chronic GVHD in BDF1 mice; details: BDF1 mice given DBA/2 spleen:lymph node cells

| Compound | antitumor activity [1] | immunosuppressive activity [2] | activity in CGVHD model [3] |
| --- | --- | --- | --- |
| CO[C@H]1C[C@@H]2CC[C@@H](C)[C@@](O)(O2)C(=O)C(=O)N2CCCC[C@H]2C(=O)O[C@H]([C@H](C)C[C@@H]2CC[C@@H](O)[C@H](OC)C2)CC(=O)[C@H](C)/C=C(\C)[C@@H](O)[C@@H](OC)C(=O)[C@H](C)C[C@H](C)/C=C/C=C/C=C/1C [rapamycin, Rapamycin] | antitumor activity | immunosuppressive activity | – |
| C=CC[C@@H]1/C=C(\C)C[C@H](C)C[C@H](OC)[C@H]2O[C@@](O)(C(=O)C(=O)N3CCCC[C@H]3C(=O)O[C@H](/C(C)=C/[C@@H]3CC[C@@H](O)[C@H](OC)C3)[C@H](C)[C@@H](O)CC1=O)[C@H](C)C[C@@H]2OC [FK506] | – | – | active |
